The text below walks through data of paper PMC9464213.

The chains behind the UniProt entries cited, without tags or fusion partners.
UniProt P46937: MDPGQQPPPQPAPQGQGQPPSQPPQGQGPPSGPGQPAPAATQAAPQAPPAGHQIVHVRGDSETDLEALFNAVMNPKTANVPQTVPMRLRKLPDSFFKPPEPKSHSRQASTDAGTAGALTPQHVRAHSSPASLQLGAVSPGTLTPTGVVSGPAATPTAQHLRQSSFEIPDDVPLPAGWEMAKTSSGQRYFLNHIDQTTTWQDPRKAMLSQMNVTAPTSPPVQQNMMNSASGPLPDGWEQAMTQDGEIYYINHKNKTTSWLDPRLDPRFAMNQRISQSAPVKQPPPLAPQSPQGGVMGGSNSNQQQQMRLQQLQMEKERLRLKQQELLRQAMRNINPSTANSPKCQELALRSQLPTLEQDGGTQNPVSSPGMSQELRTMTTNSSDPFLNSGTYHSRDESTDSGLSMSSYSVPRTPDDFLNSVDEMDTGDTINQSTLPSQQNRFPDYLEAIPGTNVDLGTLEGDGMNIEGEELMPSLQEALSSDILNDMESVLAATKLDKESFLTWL

No constants are given. Whether binding was seen depends on the method and setting. In cells and extracts the contact can be indirect. Some entries that bind do so weakly or less than the wild type.

The test has as its target T1, Basonuclin 2 (BNC2), endogenous in LX2 cells (human (endogenous in LX2)) (UniProt Q6ZN30).
T1 sequence: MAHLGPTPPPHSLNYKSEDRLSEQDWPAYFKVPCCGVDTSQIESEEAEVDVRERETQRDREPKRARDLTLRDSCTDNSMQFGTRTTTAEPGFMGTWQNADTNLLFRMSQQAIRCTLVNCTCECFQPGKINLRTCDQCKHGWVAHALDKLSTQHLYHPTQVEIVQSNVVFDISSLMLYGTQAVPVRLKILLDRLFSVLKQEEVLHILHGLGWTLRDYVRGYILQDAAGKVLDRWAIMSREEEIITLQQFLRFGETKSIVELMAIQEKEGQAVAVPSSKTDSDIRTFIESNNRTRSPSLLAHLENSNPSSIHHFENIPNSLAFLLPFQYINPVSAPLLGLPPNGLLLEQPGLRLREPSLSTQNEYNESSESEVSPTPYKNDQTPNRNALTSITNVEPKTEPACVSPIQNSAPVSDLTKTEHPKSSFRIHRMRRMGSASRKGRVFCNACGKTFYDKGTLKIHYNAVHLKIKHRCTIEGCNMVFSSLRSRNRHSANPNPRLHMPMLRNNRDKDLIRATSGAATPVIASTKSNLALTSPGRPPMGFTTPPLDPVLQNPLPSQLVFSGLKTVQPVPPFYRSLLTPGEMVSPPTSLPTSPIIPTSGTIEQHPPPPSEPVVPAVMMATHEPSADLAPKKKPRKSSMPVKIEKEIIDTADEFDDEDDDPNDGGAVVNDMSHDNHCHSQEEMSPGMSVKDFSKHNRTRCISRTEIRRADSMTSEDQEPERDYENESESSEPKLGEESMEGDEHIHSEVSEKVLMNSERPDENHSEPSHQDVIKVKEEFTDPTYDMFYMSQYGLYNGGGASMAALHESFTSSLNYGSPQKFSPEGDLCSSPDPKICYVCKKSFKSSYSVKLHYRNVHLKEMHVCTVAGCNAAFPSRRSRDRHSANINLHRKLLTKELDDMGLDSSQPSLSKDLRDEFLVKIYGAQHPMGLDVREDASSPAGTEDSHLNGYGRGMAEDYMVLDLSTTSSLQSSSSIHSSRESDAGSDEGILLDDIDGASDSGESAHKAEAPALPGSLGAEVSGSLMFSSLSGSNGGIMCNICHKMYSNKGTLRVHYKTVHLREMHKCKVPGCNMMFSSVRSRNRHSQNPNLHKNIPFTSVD
Nature of the test: co-IP; endogenous proteins cross-linked in LX2 cells with 1% formaldehyde for 10 min; nuclear extract immunoprecipitated with anti-BNC2 antibody or control IgG; western blot.

Take “Yes-Associated Protein 1 (YAP1), endogenous in LX2 cells (from UniProt P46937 1-504)”: the binding result was “binds”.
